Reference: publication PMC9581156

T1: FLAG-tagged vacuolar protein sorting 25 (human) (UniProt Q9BRG1)
T1 sequence: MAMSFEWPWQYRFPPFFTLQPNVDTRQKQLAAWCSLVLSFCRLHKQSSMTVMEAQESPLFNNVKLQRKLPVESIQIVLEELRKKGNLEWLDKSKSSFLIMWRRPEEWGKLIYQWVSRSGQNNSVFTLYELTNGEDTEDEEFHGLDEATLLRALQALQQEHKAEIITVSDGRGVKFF

B1: FLAG-tagged vacuolar protein sorting 25 (protein, UniProt Q9BRG1 1-176)
chain: T1 sequence

Assays:
[1] = target: T1, FLAG-tagged vacuolar protein sorting 25 (human); experiment: co-IP; HEK293T co-transfected with FLAG-VPS25 and GFP-3A for 48 h; RIPA lysate; primary antibody (anti-FLAG or anti-GFP) overnight with Protein G Agarose; five washes; Western blot
[2] = target: GFP-tagged EV71 3A protein (expressed in HEK293T cells) (human enterovirus 71 (EV71)); experiment: as above

| Molecule | binding [1] | binding [2] |
| --- | --- | --- |
| GFP-tagged EV71 3A protein (expressed in HEK293T cells) (human enterovirus 71 (EV71)) | binds |  |
| B1 |  | binds |

These are yes or no findings as the source states them, for the method shown. In cells and extracts the contact can be indirect. A result given as binding can be weak or reduced; the word gives no strength. Sequences can lack the tags named with a protein.
